{"source": "PubChem BioAssay AID686937 (Drosophila RNAi Screening Center, 2013)", "aim": "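Knock-downs that reduce output of a secreted reporter enzyme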 (primary screen)", "cells": "Drosophila S2 cells expressing secreted horseradish peroxidase", "reagent": "long dsRNA against Drosophila genes", "timing": "about 5.5 days (5 days dsRNA, then 12 h reporter induction)", "conditions": "reporter expression induced after 5 days of dsRNA, read 12 h later; inducer not stated", "read-out": "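Chemiluminescent measurement of peroxidase in the medium 12 h after reporter induction, following 5 days of dsRNA, given as a z-score per plate; higher means more secretion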", "direction": "z-score: higher = more reporter secreted into medium", "note": "The screen tested about 23,000 reagents; this is an unselected part of those that have a named target and a result. 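Reduced-secretion tags in replicate 1 do not always agree with the z-scores; no criterion for assigning the tags was given.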 A plus sign joins genes that one reagent is predicted to hit. Further read-outs or replicates are left out here. Not given: the amount of reagent."}
{"target": "CG4502", "DRSC id": "DRSC02755", "z-score, replicate 1": -0.69}
{"target": "CG10252", "DRSC id": "DRSC14221", "z-score, replicate 1": 0.04}
{"target": "Psc", "DRSC id": "DRSC07518", "z-score, replicate 1": 0.38}
{"target": "SH3PX1", "DRSC id": "DRSC11139", "z-score, replicate 1": 0.41}
{"target": "CG17490", "DRSC id": "DRSC03794", "z-score, replicate 1": 0.16}
{"target": "CG17490", "DRSC id": "DRSC03797", "z-score, replicate 1": -0.08}
{"target": "trr", "DRSC id": "DRSC18845", "z-score, replicate 1": 0.52}
{"target": "Rrp45", "DRSC id": "DRSC20198", "z-score, replicate 1": -0.55}
{"target": "Cyp4p3", "DRSC id": "DRSC07374", "z-score, replicate 1": -0.03}
{"target": "CG9215", "DRSC id": "DRSC20171", "z-score, replicate 1": 0.24}
{"target": "Rad51D", "DRSC id": "DRSC06840", "z-score, replicate 1": 0.28}
{"target": "CG17618 (retired record) + CG45049", "DRSC id": "DRSC16163", "z-score, replicate 1": 0.21}
{"target": "CG17618 (retired record) + CG45049", "DRSC id": "DRSC22054", "z-score, replicate 1": -1.35, "phenotype, replicate 1": "reduced secretion"}
{"target": "ZnT35C", "DRSC id": "DRSC01959", "z-score, replicate 1": 0.26}
{"target": "MFS18", "DRSC id": "DRSC00452", "z-score, replicate 1": 0.25}
{"target": "CG4610", "DRSC id": "DRSC04477", "z-score, replicate 1": 0.32}
{"target": "CG4610", "DRSC id": "DRSC22397", "z-score, replicate 1": 0.03}
